The name of at least one read-out is uncertain.
System: scopolamininduzierten Amnesie
Assay: Passive avoidance test, scopolamine-induced amnesia (light-dark box, foot shock, latency after 24 h)
Type: in vivo, Mäuse
Settings: Dosis 30 mg/kg p.o.; male mice, scopolamine hydrobromide 3 mg/kg i.p.; latency measured after 24 h (max. 180 sec)
Description: Die Testapparatur ist eine Hell-Dunkel-Box mit elektrifizierbarem Gitterboden im dunklen Teil.
55 Minuten nach Verabreichung von Kontroll-und Präparatinjektion werden unerfahrene männliche Mäuse mit Scopolaminhydrobromid (3 mg/kg i.p.) behendelt. 5 Minuten später werden die Mäuse in den hellen Teil der Box gesetzt. Nach dem Überwechseln in den drunklen Teil der Box erhalten sie einen ihnen unangenehmen elektrischen Fußschock. Nach 24 Stunden wird jede Maus einmal in den hellen Teil der Testapparatur gesetzt und die Verweildauer (max. 180 sec.) gemessen. […] […] Die Ergebnisse sind in Tabelle 2 angegeben.

In the case of NC(=O)CN1CCCC1=O [Piracetam, reference compound], the “Prozentuale Abschwächung der scopolamininduzierten Amnesie” value was 18%.

Source: patent EP0287988A2, “Pyrrole aldehydes, their preparation and use” (CASSELLA Aktiengesellschaft, priority 1987, dated 1988)
